Hit rate of the full screen: of about 410,000 compounds, about 2,000 (0.49%) were called active. The inconclusive results got no clear call from the source; some entries with a clear call stand among them for comparison. Calls follow the shape of the full dose curve; tested in HEK293 reporter line. A potency beside an inconclusive call is a rough fit, not a confirmed value.
Assay: qHTS Assay for Foot and Mouth Disease Virus Antivirals: Primary Screen against the MLPCN compound library; also: nearly all actives have a fitted effect of over 55% in size
Details: FMDV antiviral cell-based qHTS; activity, negative = inhibition: at 57.9 µM (top of the series)
Potency is read from the fitted curve at half-maximal effect.

SMILES | Potency | activity, negative = inhibition
Cc1ccc(-n2nc3c(=O)n(C(C)C(=O)NCCC4=CCCCC4)nc(C)c3c2C)cc1 (centres undefined) | inconclusive: 14.1 µM [inhibitor, partial curve, poor fit] | –
O=C(NC1CCCCCCC1)c1cc(COc2ccc3ncccc3c2)on1 | inconclusive: 3.55 µM [inhibitor, partial curve, poor fit] | –
CCOC(=O)Cc1csc(NC(=O)c2ccc(C)c(S(=O)(=O)N3CCOCC3)c2)n1 | inconclusive: 31.6 µM [inhibitor, single point] | –
COc1ccc(OCc2cccc(C(=O)Nc3cc(C)on3)c2)cc1 | inconclusive: 15.8 µM [inhibitor, single point] | –
COc1cc2c(cc1OC)/C(=C/c1ccc(Cl)cc1)C(=O)OC2 | inconclusive: 39.8 µM [inhibitor, single point] | –
CCc1ccc(OCc2ccc(C(=O)O)o2)cc1 | active: 10 µM | –
Cc1ccc(-c2n[nH]c(=O)c3ccccc23)cc1S(=O)(=O)Nc1ccccc1 | inconclusive: 39.8 µM [inhibitor, single point] | –
Cn1c2ccccc2c2c(C(=O)NCCCN3CCCC3=O)cn(C3CCCCC3)c(=O)c21 | – | inconclusive: -31.2% [inhibitor]
CC(O)C(NS(=O)(=O)c1ccc(Cl)cc1)C(=O)OCC(=O)c1c[nH]c2ccccc12 (centres undefined) | inconclusive: 15.8 µM [inhibitor, partial curve, poor fit] | –
N#Cc1c(C(F)(F)F)cc(-c2ccccc2Cl)[nH]c1=O | inconclusive: 22.4 µM [inhibitor, partial curve, poor fit] | –
Cc1ccccc1-n1nnnc1SCc1cc(=O)n2ccsc2n1 | inconclusive: 3.16 µM [inhibitor, full curve] | –
CC(=O)N1/C(=C/c2ccc(N(C)C)cc2)C(=O)c2ccccc21 | inconclusive: 20 µM [inhibitor, partial curve, poor fit] | –
Nc1nc(-c2ccc(NC(=O)c3ccco3)cc2)cs1 | inconclusive: 14.1 µM [inhibitor, single point] | –
Cc1cc(NC(=O)COC(=O)c2cc([N+](=O)[O-])ccc2N2CCOCC2)ccc1Br | inconclusive: 31.6 µM [inhibitor, single point] | –
COc1ccc(/C=C/C(=O)Nc2ccccc2C(=O)O)cc1 | inconclusive: 4.47 µM [inhibitor, full curve, poor fit] | –
Cc1cc(C)cc(N2C(=O)NC(=O)/C(=C\c3cccn3-c3ccccc3)C2=O)c1 | inconclusive: 35.5 µM [inhibitor, partial curve, poor fit] | –
Cc1ccc2nc(-c3ccccc3)cn2c1 | inconclusive: 1.78 µM [inhibitor, full curve, poor fit] | –
C=CCn1c(=O)c(C(=O)Nc2ncccc2C)c(O)c2ccccc21 | – | inactive: -9.9%
C=CCN=c1scc(-c2ccc3c(c2)NC(=O)CO3)n1/N=C(\C)c1ccccn1 | inconclusive: 17.8 µM [inhibitor, partial curve, poor fit] | –
CCOc1ccccc1CNc1ncnc2ccc(-c3c(C)noc3C)cc12 | inconclusive: 31.6 µM [inhibitor, partial curve, poor fit] | –

SMILES | Potency | activity, negative = inhibition
COc1cc(OC)c(/C=C2\C(=O)Nc3ccccc32)c(OC)c1 | inconclusive: 28.2 µM [inhibitor, partial curve, poor fit] | –
COC(=O)c1ccc(-c2nc3ccccc3[nH]2)cc1 | active: 15.8 µM | –
COc1ccc(/C=C2/C(=O)ON=C2c2ccccc2)cc1OC | inconclusive: 22.4 µM [inhibitor, partial curve, poor fit] | –
O=[N+]([O-])c1ccc(/C=C/c2ccc3ccccc3n2)cc1 | inconclusive: 17.8 µM [inhibitor, single point] | –
N#Cc1c(N)n(Cc2ccccc2)c(=O)c2cc([N+](=O)[O-])ccc12 | inconclusive: 31.6 µM [inhibitor, partial curve, poor fit] | –
CC(=O)c1c(C)[nH]c(C(=O)OCC(=O)Nc2sc3c(c2C#N)CCCC3)c1C | inconclusive: 17.8 µM [inhibitor, partial curve, poor fit] | –
Cn1c2ccccc2c(=O)c2c(=O)n(C3CCCCCC3)c(C3CCCCC3)nc21 | inconclusive: 25.1 µM [inhibitor, partial curve, poor fit] | –
COc1ccccc1-c1c(C)nn2c(N3CCCCCC3)cc(C)nc12 | inconclusive: 28.2 µM [inhibitor, partial curve, poor fit] | –
CCOC(=O)C(C(=O)OCC)C(Nc1ccc(Br)cc1)c1ccccc1 (centres undefined) | inconclusive: 12.6 µM [inhibitor, partial curve, poor fit] | –
O=C(NCc1cccnc1)/C(=C\c1ccc(-c2cccc(Cl)c2)o1)S(=O)(=O)c1ccccc1 | inconclusive: 17.8 µM [inhibitor, partial curve, poor fit] | –
CCOC(=O)c1cnc(-c2ccccc2)nc1N1CC(C)OC(C)C1 (centres undefined) | inconclusive: 3.16 µM [inhibitor, full curve] | –
CCCCCc1c(-c2cccc(OC)c2)ncn1CCc1ccccc1OC | inconclusive: 28.2 µM [inhibitor, partial curve, poor fit] | –
O=C(CSc1ncnc2c1nnn2-c1ccc(F)cc1)NCC1CCCO1 (centres undefined) | inconclusive: 15.8 µM [inhibitor, partial curve, poor fit] | –
COc1ccc(C)cc1N(C)C(=O)c1c2c(nc3ccccc13)C(=O)N(C1CCCCC1)C2 | inconclusive: 17.8 µM [inhibitor, partial curve, poor fit] | –
O=C(COc1ccc2c3c(c(=O)oc2c1)CCC3)N1CCN(c2ccc(F)cc2)CC1 | – | inactive: -35.2%
O=C1c2ccccc2NC(c2cn[nH]c2-c2ccc(Cl)cc2)N1O (centres undefined) | inconclusive: 14.1 µM [inhibitor, partial curve, poor fit] | –
COc1ccc(NC(=O)CNC(=O)Cn2c(C)cc3ccccc3c2=O)cc1OC | – | inactive: -31.4%
COC(=O)c1sccc1NC(=O)c1c(F)c(F)c(F)c(F)c1F | inconclusive: 22.4 µM [inhibitor, partial curve, poor fit] | –
CCCc1cc(-c2ccc(O)c(OCC)c2)c(C#N)c(N)n1 | inconclusive: 39.8 µM [inhibitor, single point] | –
O=C(NCc1ccccc1)c1c[nH]c2ccc(S(=O)(=O)Nc3ccc4c(c3)OCCO4)cc2c1=O | inconclusive: 11.2 µM [inhibitor, partial curve] | –

5 consecutive entries from above:
SMILES | Potency | activity, negative = inhibition
Cn1c2ccccc2c(=O)c2c(=O)n(C3CCCCCC3)c(C3CCCCC3)nc21 | inconclusive: 25.1 µM [inhibitor, partial curve, poor fit] | –
COc1ccccc1-c1c(C)nn2c(N3CCCCCC3)cc(C)nc12 | inconclusive: 28.2 µM [inhibitor, partial curve, poor fit] | –
CCOC(=O)C(C(=O)OCC)C(Nc1ccc(Br)cc1)c1ccccc1 (centres undefined) | inconclusive: 12.6 µM [inhibitor, partial curve, poor fit] | –
O=C(NCc1cccnc1)/C(=C\c1ccc(-c2cccc(Cl)c2)o1)S(=O)(=O)c1ccccc1 | inconclusive: 17.8 µM [inhibitor, partial curve, poor fit] | –
CCOC(=O)c1cnc(-c2ccccc2)nc1N1CC(C)OC(C)C1 (centres undefined) | inconclusive: 3.16 µM [inhibitor, full curve] | –

Remaining list, next part

SMILES | Potency | activity, negative = inhibition
O=C1NC(=S)NC(=O)C1=Cc1cccc2cc3ccccc3cc12 | inconclusive: 10 µM [inhibitor, partial curve, poor fit] | –
CC(C)Oc1ccc(C(=O)NCC(=O)N2CCN(S(=O)(=O)/C=C/c3ccccc3)CC2)cc1 | – | inactive: -35.9%
Cc1ccc(-c2noc(CCC(=O)NCCN3CCc4ccccc4C3)n2)cc1 | – | inactive: -32.9%
Cc1ccc(S(=O)(=O)n2cccc2/C=C/[N+](=O)[O-])cc1 | inconclusive: 15.8 µM [inhibitor, partial curve, poor fit] | –
Cc1nc(COc2ccc(C(=O)Nc3ccccc3N3CCOCC3)cc2)cs1 | inconclusive: 11.2 µM [inhibitor, partial curve] | –
COc1ccc(NC(=O)c2c(NC(=O)c3ccc(Br)cc3)sc3c2CCCC3)cc1 | – | inactive: -31.2%
CN(C)c1ccc(C2Nc3ccccc3C(=O)N2CCCN2CCOCC2)cc1 (centres undefined) | inconclusive: 2.82 µM [inhibitor, partial curve, poor fit] | –
CC#CC[N+](C)(C)CCCCCCCCCCCC | inconclusive: 12.6 µM [inhibitor, partial curve, poor fit] | –
COc1ccc(C(=O)Nn2c(SCC(=O)NC3CCCC3)nc3ccccc3c2=O)cc1 | inconclusive: 17.8 µM [inhibitor, partial curve, poor fit] | –
O=C(Nc1cccnc1)C1CCCN(S(=O)(=O)c2ccccc2)C1 (centres undefined) | – | inconclusive: -34.1% [inhibitor]
CCCOc1ccc(C(=O)Nc2ccc(N3CCN(C(=O)c4ccco4)CC3)cc2)cc1 | inconclusive: 5.01 µM [inhibitor, partial curve, poor fit] | –
COc1ccc(C(=O)/C=C/C(=O)N(CC(=O)NC2CCCCC2)Cc2ccccc2OC)c(O)c1 | inconclusive: 7.94 µM [inhibitor, full curve, poor fit] | –
CCN(CC)S(=O)(=O)c1cc(NC(=O)Cn2ncc(Cl)c(Cl)c2=O)ccc1C | inconclusive: 39.8 µM [inhibitor, single point] | –
COc1cc(C(C[N+](=O)[O-])c2c(N)n(C)c(=O)n(C)c2=O)ccc1O (centres undefined) | inconclusive: 17.8 µM [inhibitor, partial curve, poor fit] | –
CN1CCN(C(=O)c2ccc(Oc3ccc([N+](=O)[O-])cc3)cc2)CC1 | inconclusive: 28.2 µM [inhibitor, partial curve, poor fit] | –
O=C(Nc1ccc(Cl)c(S(=O)(=O)N2CCOCC2)c1)c1ccc(OCC2CCCO2)cc1 (centres undefined) | inconclusive: 7.94 µM [inhibitor, full curve, poor fit] | –
CCOc1ccc(N(Cc2cc3cc(C)ccc3[nH]c2=O)C(=O)c2cccc(Cl)c2)cc1 | – | inactive: -31.5%
CC(C)(C)c1ccc(OCC(O)CSc2ncn[nH]2)cc1 (centres undefined) | inconclusive: 11.2 µM [inhibitor, single point] | –
Cc1ccc(C(=O)Nc2nc3ccccc3[nH]2)cc1 | inconclusive: 11.2 µM [inhibitor, partial curve, poor fit] | –
